Assay results as given in the supplement of paper PMC10849652.
This is one part of the list.

Protein sequences, listed by entry. Tags and fused reporters are not part of them. Lines headed by an entry give the natural chain unless they say otherwise; changes in a name come on top.
UniProt P51668: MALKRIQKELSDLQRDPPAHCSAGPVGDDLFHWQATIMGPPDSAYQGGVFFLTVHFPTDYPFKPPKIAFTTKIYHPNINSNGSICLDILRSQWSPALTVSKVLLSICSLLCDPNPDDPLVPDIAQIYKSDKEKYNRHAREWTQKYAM
UniProt Q9H832: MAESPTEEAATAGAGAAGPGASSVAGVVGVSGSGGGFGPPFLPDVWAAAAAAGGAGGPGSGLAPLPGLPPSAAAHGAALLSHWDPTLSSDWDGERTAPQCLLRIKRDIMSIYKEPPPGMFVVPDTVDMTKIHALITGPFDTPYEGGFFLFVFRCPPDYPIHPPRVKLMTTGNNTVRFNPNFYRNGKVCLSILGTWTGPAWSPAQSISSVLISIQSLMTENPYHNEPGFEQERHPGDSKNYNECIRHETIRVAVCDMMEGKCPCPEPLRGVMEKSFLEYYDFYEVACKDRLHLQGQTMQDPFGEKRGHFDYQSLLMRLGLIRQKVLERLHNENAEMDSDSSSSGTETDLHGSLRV
UniProt Q9NPD8: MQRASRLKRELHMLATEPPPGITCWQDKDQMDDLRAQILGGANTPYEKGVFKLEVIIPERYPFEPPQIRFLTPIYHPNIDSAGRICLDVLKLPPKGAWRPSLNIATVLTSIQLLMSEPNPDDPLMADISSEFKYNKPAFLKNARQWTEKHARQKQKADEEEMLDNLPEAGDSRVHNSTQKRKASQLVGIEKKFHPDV
UniProt O95881: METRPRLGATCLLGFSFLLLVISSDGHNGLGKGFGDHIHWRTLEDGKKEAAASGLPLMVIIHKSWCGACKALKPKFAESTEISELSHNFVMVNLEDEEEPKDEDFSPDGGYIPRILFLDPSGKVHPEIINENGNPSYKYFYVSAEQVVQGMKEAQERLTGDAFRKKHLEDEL
UniProt P68036, whole entry, looked up: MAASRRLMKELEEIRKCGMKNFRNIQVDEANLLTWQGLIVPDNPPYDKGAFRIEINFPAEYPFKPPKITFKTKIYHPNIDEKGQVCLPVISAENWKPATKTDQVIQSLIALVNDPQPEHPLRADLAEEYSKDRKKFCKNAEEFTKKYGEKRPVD
UniProt Q969M7: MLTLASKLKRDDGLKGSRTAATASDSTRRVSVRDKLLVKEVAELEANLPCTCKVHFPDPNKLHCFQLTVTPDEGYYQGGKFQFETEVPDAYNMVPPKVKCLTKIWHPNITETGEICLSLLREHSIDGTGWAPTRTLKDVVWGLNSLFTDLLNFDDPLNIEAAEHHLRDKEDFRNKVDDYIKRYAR
UniProt Q9NNW7, whole entry, looked up: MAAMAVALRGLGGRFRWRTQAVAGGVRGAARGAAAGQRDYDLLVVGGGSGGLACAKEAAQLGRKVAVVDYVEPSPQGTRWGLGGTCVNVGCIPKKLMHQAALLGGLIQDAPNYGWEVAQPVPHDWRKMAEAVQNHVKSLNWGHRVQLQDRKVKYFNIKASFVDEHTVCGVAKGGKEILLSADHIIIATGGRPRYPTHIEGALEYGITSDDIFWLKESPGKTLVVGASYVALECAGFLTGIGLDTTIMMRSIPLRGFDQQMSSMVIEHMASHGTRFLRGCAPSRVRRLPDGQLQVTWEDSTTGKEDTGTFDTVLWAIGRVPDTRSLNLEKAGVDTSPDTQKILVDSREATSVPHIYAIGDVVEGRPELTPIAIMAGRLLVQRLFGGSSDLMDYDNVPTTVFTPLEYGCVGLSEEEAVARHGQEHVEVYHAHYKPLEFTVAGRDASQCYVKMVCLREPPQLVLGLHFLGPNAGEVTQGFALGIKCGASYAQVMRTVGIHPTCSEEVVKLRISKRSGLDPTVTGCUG
UniProt P07437, whole entry, looked up: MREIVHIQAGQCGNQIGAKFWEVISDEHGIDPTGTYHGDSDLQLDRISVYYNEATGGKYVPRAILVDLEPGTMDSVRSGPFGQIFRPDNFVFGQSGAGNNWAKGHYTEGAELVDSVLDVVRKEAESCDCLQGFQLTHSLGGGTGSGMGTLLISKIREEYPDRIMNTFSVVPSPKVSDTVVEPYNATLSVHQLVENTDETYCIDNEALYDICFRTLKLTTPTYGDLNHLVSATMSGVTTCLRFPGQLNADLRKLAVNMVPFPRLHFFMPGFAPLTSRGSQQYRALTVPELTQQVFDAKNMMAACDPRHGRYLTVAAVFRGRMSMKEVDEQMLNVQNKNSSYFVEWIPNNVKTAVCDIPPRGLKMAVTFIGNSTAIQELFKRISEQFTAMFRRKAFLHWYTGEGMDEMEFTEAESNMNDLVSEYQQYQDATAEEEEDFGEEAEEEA
UniProt P68363, whole entry, looked up: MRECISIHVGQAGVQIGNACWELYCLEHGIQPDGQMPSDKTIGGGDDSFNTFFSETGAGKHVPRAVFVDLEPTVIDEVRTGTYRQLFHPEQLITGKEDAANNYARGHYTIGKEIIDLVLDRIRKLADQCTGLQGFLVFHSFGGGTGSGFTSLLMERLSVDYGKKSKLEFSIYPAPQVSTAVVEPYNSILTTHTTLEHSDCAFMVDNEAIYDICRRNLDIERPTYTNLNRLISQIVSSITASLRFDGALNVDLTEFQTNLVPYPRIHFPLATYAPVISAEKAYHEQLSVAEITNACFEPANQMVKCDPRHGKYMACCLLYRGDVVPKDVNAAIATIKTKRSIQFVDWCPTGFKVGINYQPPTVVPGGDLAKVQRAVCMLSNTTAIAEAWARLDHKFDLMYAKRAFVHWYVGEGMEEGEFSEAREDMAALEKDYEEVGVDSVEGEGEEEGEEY
UniProt P61077: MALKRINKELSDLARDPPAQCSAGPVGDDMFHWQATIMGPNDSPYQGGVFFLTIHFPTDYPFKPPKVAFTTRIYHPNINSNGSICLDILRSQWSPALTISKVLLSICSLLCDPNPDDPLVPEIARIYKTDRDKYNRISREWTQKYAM
UniProt Q9BSJ2, whole entry, looked up: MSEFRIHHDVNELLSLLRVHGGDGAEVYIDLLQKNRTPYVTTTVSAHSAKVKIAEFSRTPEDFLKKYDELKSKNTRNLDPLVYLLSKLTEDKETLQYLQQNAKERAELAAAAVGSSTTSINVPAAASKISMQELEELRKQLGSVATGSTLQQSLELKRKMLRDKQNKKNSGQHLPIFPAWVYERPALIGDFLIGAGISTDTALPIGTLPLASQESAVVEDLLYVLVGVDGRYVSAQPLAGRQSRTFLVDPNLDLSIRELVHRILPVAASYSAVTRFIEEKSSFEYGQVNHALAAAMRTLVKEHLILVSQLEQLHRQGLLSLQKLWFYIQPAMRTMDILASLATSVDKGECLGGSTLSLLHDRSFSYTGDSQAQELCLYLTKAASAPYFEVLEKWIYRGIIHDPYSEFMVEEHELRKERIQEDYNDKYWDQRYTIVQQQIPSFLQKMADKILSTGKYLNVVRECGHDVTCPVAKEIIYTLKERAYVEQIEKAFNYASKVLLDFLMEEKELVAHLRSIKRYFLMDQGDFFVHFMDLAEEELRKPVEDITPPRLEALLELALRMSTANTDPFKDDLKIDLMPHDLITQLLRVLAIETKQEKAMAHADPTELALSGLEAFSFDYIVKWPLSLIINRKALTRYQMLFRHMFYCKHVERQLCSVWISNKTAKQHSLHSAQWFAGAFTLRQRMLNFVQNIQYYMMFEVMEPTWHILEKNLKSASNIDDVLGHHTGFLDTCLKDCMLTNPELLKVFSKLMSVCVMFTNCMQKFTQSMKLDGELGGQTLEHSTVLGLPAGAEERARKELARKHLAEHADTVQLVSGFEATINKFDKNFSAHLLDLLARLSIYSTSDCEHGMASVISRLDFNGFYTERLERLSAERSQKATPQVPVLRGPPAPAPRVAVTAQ
UniProt Q5JXB2: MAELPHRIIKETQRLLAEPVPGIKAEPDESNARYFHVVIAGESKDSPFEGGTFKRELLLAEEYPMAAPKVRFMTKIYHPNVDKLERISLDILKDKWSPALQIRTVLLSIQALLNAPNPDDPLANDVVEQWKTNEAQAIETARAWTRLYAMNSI
UniProt Q14139: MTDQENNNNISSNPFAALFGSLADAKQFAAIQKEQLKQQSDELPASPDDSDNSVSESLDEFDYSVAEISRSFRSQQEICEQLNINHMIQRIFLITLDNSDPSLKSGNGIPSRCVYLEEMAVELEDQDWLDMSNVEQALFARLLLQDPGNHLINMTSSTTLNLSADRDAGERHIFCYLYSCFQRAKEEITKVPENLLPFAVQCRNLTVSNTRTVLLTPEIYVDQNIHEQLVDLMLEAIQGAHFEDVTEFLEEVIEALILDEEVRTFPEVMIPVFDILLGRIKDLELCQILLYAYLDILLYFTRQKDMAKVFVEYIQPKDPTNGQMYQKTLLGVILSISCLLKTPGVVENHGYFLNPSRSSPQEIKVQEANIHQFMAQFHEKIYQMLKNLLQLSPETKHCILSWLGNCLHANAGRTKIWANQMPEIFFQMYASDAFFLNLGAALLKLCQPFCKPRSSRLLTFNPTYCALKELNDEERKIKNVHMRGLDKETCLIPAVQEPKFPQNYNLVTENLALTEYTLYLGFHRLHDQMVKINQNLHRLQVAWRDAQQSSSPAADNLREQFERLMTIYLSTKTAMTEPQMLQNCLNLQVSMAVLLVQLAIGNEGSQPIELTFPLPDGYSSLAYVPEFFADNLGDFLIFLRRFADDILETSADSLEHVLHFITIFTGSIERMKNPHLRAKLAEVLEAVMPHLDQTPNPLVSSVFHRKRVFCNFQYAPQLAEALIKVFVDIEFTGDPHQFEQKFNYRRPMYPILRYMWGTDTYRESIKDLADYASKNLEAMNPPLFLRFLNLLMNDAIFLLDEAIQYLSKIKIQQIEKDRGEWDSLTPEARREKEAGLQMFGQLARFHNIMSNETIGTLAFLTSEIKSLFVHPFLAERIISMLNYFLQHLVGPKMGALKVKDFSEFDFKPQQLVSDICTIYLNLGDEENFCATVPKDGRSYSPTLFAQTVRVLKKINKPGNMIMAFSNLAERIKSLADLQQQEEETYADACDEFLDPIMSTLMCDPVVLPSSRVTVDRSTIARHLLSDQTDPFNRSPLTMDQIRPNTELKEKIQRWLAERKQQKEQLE
UniProt P68366, whole entry, looked up: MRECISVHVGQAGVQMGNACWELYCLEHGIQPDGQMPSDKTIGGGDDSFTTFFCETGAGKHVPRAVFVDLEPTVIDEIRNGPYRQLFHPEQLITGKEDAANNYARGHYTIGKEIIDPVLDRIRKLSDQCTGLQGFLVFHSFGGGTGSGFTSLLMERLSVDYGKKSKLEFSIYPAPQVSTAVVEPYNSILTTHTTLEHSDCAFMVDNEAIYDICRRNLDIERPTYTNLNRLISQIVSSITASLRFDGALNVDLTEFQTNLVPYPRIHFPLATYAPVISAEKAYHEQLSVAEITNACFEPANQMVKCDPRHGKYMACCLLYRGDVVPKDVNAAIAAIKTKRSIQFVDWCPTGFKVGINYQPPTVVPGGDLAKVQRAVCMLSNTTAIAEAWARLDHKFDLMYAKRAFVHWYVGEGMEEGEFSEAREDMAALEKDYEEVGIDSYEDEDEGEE
UniProt O94888: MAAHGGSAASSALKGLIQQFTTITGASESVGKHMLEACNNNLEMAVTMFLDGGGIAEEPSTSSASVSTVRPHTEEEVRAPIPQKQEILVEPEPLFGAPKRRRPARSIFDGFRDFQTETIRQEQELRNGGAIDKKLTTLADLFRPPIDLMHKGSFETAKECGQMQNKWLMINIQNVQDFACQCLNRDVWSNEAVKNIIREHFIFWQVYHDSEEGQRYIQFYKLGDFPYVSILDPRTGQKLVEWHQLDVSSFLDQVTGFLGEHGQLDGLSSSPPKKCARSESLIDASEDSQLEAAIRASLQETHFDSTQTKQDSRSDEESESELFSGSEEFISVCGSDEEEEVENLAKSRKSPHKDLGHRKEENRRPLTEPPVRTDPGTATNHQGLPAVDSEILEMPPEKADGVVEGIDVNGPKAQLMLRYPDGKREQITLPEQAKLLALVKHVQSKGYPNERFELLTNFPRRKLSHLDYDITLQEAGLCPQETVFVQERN
UniProt P04818: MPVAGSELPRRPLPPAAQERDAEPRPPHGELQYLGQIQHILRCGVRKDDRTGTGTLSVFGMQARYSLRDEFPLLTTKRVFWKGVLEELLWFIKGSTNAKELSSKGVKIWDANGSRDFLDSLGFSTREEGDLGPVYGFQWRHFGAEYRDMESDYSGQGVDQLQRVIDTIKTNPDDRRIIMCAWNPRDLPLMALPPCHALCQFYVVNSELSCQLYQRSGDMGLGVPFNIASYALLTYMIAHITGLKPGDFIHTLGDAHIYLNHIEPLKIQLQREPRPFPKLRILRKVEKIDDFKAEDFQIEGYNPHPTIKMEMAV
UniProt Q9BTX7: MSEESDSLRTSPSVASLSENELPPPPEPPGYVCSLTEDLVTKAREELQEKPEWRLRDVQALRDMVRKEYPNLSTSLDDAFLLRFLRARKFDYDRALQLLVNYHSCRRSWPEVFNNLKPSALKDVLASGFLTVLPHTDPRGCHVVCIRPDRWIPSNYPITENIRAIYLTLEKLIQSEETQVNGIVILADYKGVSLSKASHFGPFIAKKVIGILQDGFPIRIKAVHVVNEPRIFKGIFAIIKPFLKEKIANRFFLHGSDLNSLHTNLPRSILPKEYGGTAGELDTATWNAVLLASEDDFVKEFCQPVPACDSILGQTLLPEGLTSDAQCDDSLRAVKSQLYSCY

What was measured:
Assay in all cases: log2 fold change, soluble protein after heating vs DMSO (PISA); higher = thermal stabilisation; K562 lysate, 10 uM; active = over 0.2 and 3.5 SD of the protein, either way, in both replicates (recomputed)
[1] = compound: C1=CC=C(C=C1)[C@H](COC2=CC3=C(C=C2)NC(=O)N3)NC(=O)C4=CC=CN(C4=O)CC5=CC(=C(C=C5)F)F
How it was run: (§1)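 Following dounce homogenisation of K562 pellets in PBS pH 7.4 with 1 mM MgCl2, crude extract at 1 mg/mL protein was incubated for 30 min with 10 μM compound. Aliquots were then heated for 3 min over 48°C-58°C and pooled, NP-40 was added to 0.5% at 4°C, and soluble protein was recovered as the supernatant at 21,000xg for 90 min. Channel-sum-equalised TMTpro 16plex LC-MS/MS quantified this protein. Each value, from duplicates, is a log-two fold change in thermal stability relative to solvent controls.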

[2] = compound: CC1=C(SC2=C1C(=N[C@H](C3=NN=C(N32)C)CC(=O)N)C4=CC=C(C=C4)Cl)C
How it was run: as §1

[3] = compound: CC1=C2C(=CC=C1)N=C(N(C2=O)C3=CC=CC=C3C)CN4C=NC5=C(N=CN=C54)N
How it was run: as §1

[4] = compound: Cc1sc2c(c1C)C(c1ccc(Cl)cc1)=N[C@@H](CC(=O)OC(C)(C)C)c1nnc(C)n1-2
How it was run: as §1

[5] = compound: c1ccc([C@@H]2C[C@H]2NC2CCNCC2)cc1
How it was run: as §1

Measured: log2 fold change

UBXN10 (UniProt Q96LJ8)
inactive: [1] -0.032 | [2] 0.048 | [3] 0.056 | [4] 0.095 | [5] 0.022

UBE2D1 (UniProt P51668)
inactive: [1] 0.056 | [2] 0.066 | [3] 0.02 | [4] -0.082 | [5] 0.016

UBE2Z (UniProt Q9H832)
inactive: [1] 0.02 | [2] 0.007 | [3] 0.025 | [4] -0.01 | [5] -0.049

UBE2T (UniProt Q9NPD8)
inactive: [1] -0.014 | [2] 0.063 | [3] 0.02 | [4] 0.015 | [5] 0.034

TXNDC12 (UniProt O95881)
inactive: [1] -0.044 | [2] -0.049 | [3] -0.003 | [4] -0.017 | [5] -0.007

UBR2 isoform 4 (UniProt Q8IWV8)
inactive: [1] 0.051 | [2] -0.005 | [3] 0.02 | [4] -0.015 | [5] 0.031

UBE2L3 isoform 3 (UniProt P68036)
inactive: [1] -0.013 | [2] 0.008 | [3] -0.014 | [4] -0.016 | [5] 0.026

UBE2F isoform 2 (UniProt Q969M7)
inactive: [1] -0.013 | [2] -0.042 | [3] -0.013 | [4] 0.007 | [5] 0

TXNRD2 (UniProt Q9NNW7)
inactive: [1] 0.023 | [2] -0.015 | [3] -0.048 | [4] -0.042 | [5] 0.006

TUBB (UniProt P07437)
inactive: [1] 0.025 | [2] 0.027 | [3] -0.005 | [4] 0.014 | [5] -0.001

TUBA1B (UniProt P68363)
inactive: [1] -0.006 | [2] 0.014 | [3] 0.004 | [4] 0.015 | [5] -0.03

UBE2D3 isoform 3 (UniProt P61077)
inactive: [1] -0.017 | [2] -0.006 | [3] -0.039 | [4] 0.095 | [5] -0.023

TUBGCP2 isoform 4 (UniProt Q9BSJ2)
inactive: [1] 0.009 | [2] -0.015 | [3] 0.035 | [4] 0.018 | [5] 0.097

TUBGCP6 (UniProt Q96RT7)
inactive: [1] -0.019 | [2] 0.09 | [3] -0.03 | [4] -0.006 | [5] -0.06

UBE2NL (UniProt Q5JXB2)
inactive: [1] -0.031 | [2] -0.04 | [3] 0.008 | [4] 0.009 | [5] 0.068

UBR5 (UniProt O95071)
inactive: [1] -0.011 | [2] 0.012 | [3] 0.012 | [4] -0.018 | [5] 0.01

UBE4A isoform 2 (UniProt Q14139)
inactive: [1] -0.016 | [2] -0.041 | [3] 0.003 | [4] 0.043 | [5] 0.051

UCHL5 (UniProt Q5LJA9)
inactive: [1] 0.002 | [2] -0.059 | [3] -0.022 | [4] -0.251 | [5] 0.133

UBE2I (UniProt H3BQQ9)
inactive: [1] -0.143 | [2] -0.169 | [3] 0.015 | [4] -0.21 | [5] -0.001

TUBA4A (UniProt P68366)
inactive: [1] -0.068 | [2] 0.013 | [3] 0.03 | [4] -0.024 | [5] 0.019

UBXN7 (UniProt O94888)
inactive: [1] 0.035 | [2] -0.031 | [3] -0.015 | [4] -0.02 | [5] -0.037

Two successive entries out of the list so far, quoted:
UCHL5 (UniProt Q5LJA9)
inactive: [1] 0.002 | [2] -0.059 | [3] -0.022 | [4] -0.251 | [5] 0.133

UBE2I (UniProt H3BQQ9)
inactive: [1] -0.143 | [2] -0.169 | [3] 0.015 | [4] -0.21 | [5] -0.001

Additional entries

TYMS (UniProt P04818)
inactive: [1] -0.005 | [2] 0.02 | [3] -0.005 | [4] 0.012 | [5] 0.014

TTPAL (UniProt Q9BTX7)
inactive: [1] -0.02 | [2] -0.011 | [3] -0.036 | [4] -0.043 | [5] -0.056

TYW1 (UniProt Q9NV66)
inactive: [1] 0.026 | [2] 0.108 | [3] -0.05 | [4] -0.062 | [5] 0.015
